Values of other authors in patent publication US20140058108A1 (SINOXA PHARMA UG, priority 2010, published 2014).

By UniProt entry, the sequences of proteins in these tests, tags left out.
UniProt P30994, whole entry: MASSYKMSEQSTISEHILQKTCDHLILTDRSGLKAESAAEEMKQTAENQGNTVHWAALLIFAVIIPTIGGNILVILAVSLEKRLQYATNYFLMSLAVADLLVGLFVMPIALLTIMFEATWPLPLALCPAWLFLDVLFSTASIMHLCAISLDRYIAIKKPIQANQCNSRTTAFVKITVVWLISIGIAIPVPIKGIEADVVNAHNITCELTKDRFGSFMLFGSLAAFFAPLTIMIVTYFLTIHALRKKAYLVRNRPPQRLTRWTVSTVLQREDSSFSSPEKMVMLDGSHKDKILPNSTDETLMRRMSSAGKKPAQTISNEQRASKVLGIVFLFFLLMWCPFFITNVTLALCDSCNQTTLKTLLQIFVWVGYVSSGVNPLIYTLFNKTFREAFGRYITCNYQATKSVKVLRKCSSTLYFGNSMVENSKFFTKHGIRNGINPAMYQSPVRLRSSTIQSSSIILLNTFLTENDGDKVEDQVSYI

Biological target: 5-HT2B receptors (isolated rat stomachs) (Rattus norvegicus, UniProt P30994)
Conditions: in vitro, isolated rat stomachs [Villalon 2003; Podvalova 1972]; cited from earlier work

Compound: CCN(CC)C(=O)N[C@H]1C=C2c3cccc4[nH]cc(c34)C[C@H]2N(C)C1 [Lisuride, 3-(9,10-didehydro-6-methylergoline-8alpha-yl)-1,1-diethylurea]
- anti-serotoninergic potency: especially high anti-serotoninergic potency
